This is an account of results in paper doi:10.1101/2020.01.21.914333.

Sequences of proteins named here, by UniProt entry; tags and fusion partners are left off. A change or cut given only in a name is not applied to a line headed by its entry.
UniProt P60881, whole entry: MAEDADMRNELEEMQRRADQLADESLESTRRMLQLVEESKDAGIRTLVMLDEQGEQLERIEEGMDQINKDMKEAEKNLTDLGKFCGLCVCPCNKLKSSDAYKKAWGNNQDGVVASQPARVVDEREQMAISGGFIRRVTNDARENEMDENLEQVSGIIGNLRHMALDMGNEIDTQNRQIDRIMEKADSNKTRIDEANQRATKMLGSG
UniProt Q8IUH5, whole entry: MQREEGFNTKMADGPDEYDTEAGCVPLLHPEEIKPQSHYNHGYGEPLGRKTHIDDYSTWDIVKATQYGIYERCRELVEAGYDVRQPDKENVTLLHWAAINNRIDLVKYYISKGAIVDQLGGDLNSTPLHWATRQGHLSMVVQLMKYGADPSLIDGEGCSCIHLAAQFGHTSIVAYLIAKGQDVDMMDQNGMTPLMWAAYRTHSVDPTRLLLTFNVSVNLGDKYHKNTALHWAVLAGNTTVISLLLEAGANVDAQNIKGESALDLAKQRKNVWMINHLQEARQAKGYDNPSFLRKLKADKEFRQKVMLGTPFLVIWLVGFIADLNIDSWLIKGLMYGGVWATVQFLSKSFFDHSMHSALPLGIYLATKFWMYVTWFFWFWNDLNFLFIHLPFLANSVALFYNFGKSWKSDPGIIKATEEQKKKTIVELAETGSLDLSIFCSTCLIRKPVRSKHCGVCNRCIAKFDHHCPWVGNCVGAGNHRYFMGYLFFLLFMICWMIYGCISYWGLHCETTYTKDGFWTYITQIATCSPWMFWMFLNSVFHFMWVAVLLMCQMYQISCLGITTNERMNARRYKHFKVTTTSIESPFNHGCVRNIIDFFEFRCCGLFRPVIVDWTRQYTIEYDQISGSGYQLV

Holding throughout (test): co-IP
For one assay, the target named is EGFP-SNAP25b P117G (rat) (UniProt P60881).
Assay [1] has as its target EGFP-SNAP25b Δ(101-108) (rat) (UniProt P60881).
For a further assay, the target named is EGFP-SNAP25b WT (rat) (UniProt P60881).

No constants are given. Whether binding was seen depends on the method and setting. In cells and extracts the contact can be indirect. Some binding calls cover weakened binding; strength is not graded here.

As for “HA-zDHHC17 (from UniProt Q8IUH5 1-632) (enzyme)”, the values for the binding result (in the assay with EGFP-SNAP25b P117G (rat); in assay [1]; in the assay with EGFP-SNAP25b WT (rat)) were “no binding”, “binds” and “binds”, respectively.
